In article PMC9481612, “Molecular architecture of the augmin complex” (Nature Communications, 2022):
These are yes or no findings as the source states them, for the method shown. Some entries that bind do so weakly or less than the wild type.

B1: HAUS6 (protein, UniProt Q7Z4H7 1-955)
chain: MSSASVTAFEKEHLWMYLQALGFEPGPATIACGKIVSHTHLGVNMFDKLNRDAFHIISYFLFQVLDQSLTKEVFKFCWPPFDQKSDTEFRKHCCEWIKRISGECGSSFPQVVGSLFLSPGGPKFIHLMYHFARFVAMKYIKSNSKNSSHHFVETFNIKPQDLHKCIARCHFARSRFLQILQRQDCVTQKYQENAQLSVKQVRNLRSECIGLENQIKKMEPYDDHSNMEEKIQKVRSLWASVNETLMFLEKEREVVSSVLSLVNQYALDGTNVAINIPRLLLDKIEKQMFQLHIGNVYEAGKLNLLTVIQLLNEVLKVMKYERCQADQARLTVDLHYLEKETKFQKERLSDLKHMRYRIKDDLTTIRHSVVEKQGEWHKKWKEFLGLSPFSLIKGWTPSVDLLPPMSPLSFDPASEEVYAKSILCQYPASLPDAHKQHNQENGCRGDSDTLGALHDLANSPASFLSQSVSSSDRNSVTVLEKDTKMGTPKEKNEAISKKIPEFEVENSPLSDVAKNTESSAFGGSLPAKKSDPFQKEQDHLVEEVARAVLSDSPQLSEGKEIKLEELIDSLGSNPFLTRNQIPRTPENLITEIRSSWRKAIEMEENRTKEPIQMDAEHREVLPESLPVLHNQREFSMADFLLETTVSDFGQSHLTEEKVISDCECVPQKHVLTSHIDEPPTQNQSDLLNKKVICKQDLECLAFTKLSETSRMETFSPAVGNRIDVMGGSEEEFMKILDHLEVSCNKPSTNKTMLWNSFQISSGISSKSFKDNDFGILHETLPEEVGHLSFNSSSSSEANFKLEPNSPMHGGTLLEDVVGGRQTTPESDFNLQALRSRYEALKKSLSKKREESYLSNSQTPERHKPELSPTPQNVQTDDTLNFLDTCDLHTEHIKPSLRTSIGERKRSLSPLIKFSPVEQRLRTTIACSLGELPNLKEEDILNKSLDAKEPPSDLTR
B2: HAUS5 (protein, UniProt O94927 1-633)
chain: MELAQEARELGCWAVEEMGVPVAARAPESTLRRLCLGQGADIWAYILQHVHSQRTVKKIRGNLLWYGHQDSPQVRRKLELEAAVTRLRAEIQELDQSLELMERDTEAQDTAMEQARQHTQDTQRRALLLRAQAGAMRRQQHTLRDPMQRLQNQLRRLQDMERKAKVDVTFGSLTSAALGLEPVVLRDVRTACTLRAQFLQNLLLPQAKRGSLPTPHDDHFGTSYQQWLSSVETLLTNHPPGHVLAALEHLAAEREAEIRSLCSGDGLGDTEISRPQAPDQSDSSQTLPSMVHLIQEGWRTVGVLVSQRSTLLKERQVLTQRLQGLVEEVERRVLGSSERQVLILGLRRCCLWTELKALHDQSQELQDAAGHRQLLLRELQAKQQRILHWRQLVEETQEQVRLLIKGNSASKTRLCRSPGEVLALVQRKVVPTFEAVAPQSRELLRCLEEEVRHLPHILLGTLLRHRPGELKPLPTVLPSIHQLHPASPRGSSFIALSHKLGLPPGKASELLLPAAASLRQDLLLLQDQRSLWCWDLLHMKTSLPPGLPTQELLQIQASQEKQQKENLGQALKRLEKLLKQALERIPELQGIVGDWWEQPGQAALSEELCQGLSLPQWRLRWVQAQGALQKLCS
B3: HAUS8 (natural protein, human, UniProt Q9BT25 1-410, looked up)
chain: MADSSGRGAGKPATGPTNSSSAKKKDKRVQGGRVIESRYLQYEKKTTQKAPAGDGSQTRGKMSEGGRKSSLLQKSKADSSGVGKGDLQSTLLEGHGTAPPDLDLSAINDKSIVKKTPQLAKTISKKPESTSFSAPRKKSPDLSEAMEMMESQTLLLTLLSVKMENNLAEFERRAEKNLLIMCKEKEKLQKKAHELKRRLLLSQRKRELADVLDAQIEMLSPFEAVATRFKEQYRTFATALDTTRHELPVRSIHLEGDGQQLLDALQHELVTTQRLLGELDVGDSEENVQVLDLLSELKDVTAKKDLELRRSFAQVLELSAEASKEAALANQEVWEETQGMAPPSRWYFNQDSACRESGGAPKNTPLSEDDNPGASSAPAQATFISPSEDFSSSSQAEVPPSLSRSGRDLS
notes: HAUS8, human; 410; a.a; 1-138 and 340-410 are not seen in the cryo-EM map; also called H8; source: High5 insect cells, co-infected with baculoviruses; purified as part of the augmin octamer (StrepII-Trap, Superose 6)
B4: HAUS1 (protein, UniProt Q96CS2 1-278)
chain: MEPQEERETQVAAWLKKIFGDHPIPQYEVNPRTTEILHHLSERNRVRDRDVYLVIEDLKQKASEYESEAKYLQDLLMESVNFSPANLSSTGSRYLNALVDSAVALETKDTSLASFIPAVNDLTSDLFRTKSKSEEIKIELEKLEKNLTATLVLEKCLQEDVKKAELHLSTERAKVDNRRQNMDFLKAKSEEFRFGIKAAEEQLSARGMDASLSHQSLVALSEKLARLKQQTIPLKKKLESYLDLMPNPSLAQVKIEEAKRELDSIEAELTRRVDMMEL
B5: HAUS3 (natural protein, human, UniProt Q68CZ6 1-603, looked up)
chain: MSCGNEFVETLKKIGYPKADNLNGEDFDWLFEGVEDESFLKWFCGNVNEQNVLSERELEAFSILQKSGKPILEGAALDEALKTCKTSDLKTPRLDDKELEKLEDEVQTLLKLKNLKIQRRNKCQLMASVTSHKSLRLNAKEEEATKKLKQSQGILNAMITKISNELQALTDEVTQLMMFFRHSNLGQGTNPLVFLSQFSLEKYLSQEEQSTAALTLYTKKQFFQGIHEVVESSNEDNFQLLDIQTPSICDNQEILEERRLEMARLQLAYICAQHQLIHLKASNSSMKSSIKWAEESLHSLTSKAVDKENLDAKISSLTSEIMKLEKEVTQIKDRSLPAVVRENAQLLNMPVVKGDFDLQIAKQDYYTARQELVLNQLIKQKASFELLQLSYEIELRKHRDIYRQLENLVQELSQSNMMLYKQLEMLTDPSVSQQINPRNTIDTKDYSTHRLYQVLEGENKKKELFLTHGNLEEVAEKLKQNISLVQDQLAVSAQEHSFFLSKRNKDVDMLCDTLYQGGNQLLLSDQELTEQFHKVESQLNKLNHLLTDILADVKTKRKTLANNKLHQMEREFYVYFLKDEDYLKDIVENLETQSKIKAVSLED
notes: HAUS3, human; 603; also called H3; source: High5 insect cells, co-infected with baculoviruses; purified as part of the augmin octamer (StrepII-Trap, Superose 6)
B6: HAUS6 N-terminal region (a.a. 1–432) (domain or fragment, UniProt Q7Z4H7 1-432)
chain: MSSASVTAFEKEHLWMYLQALGFEPGPATIACGKIVSHTHLGVNMFDKLNRDAFHIISYFLFQVLDQSLTKEVFKFCWPPFDQKSDTEFRKHCCEWIKRISGECGSSFPQVVGSLFLSPGGPKFIHLMYHFARFVAMKYIKSNSKNSSHHFVETFNIKPQDLHKCIARCHFARSRFLQILQRQDCVTQKYQENAQLSVKQVRNLRSECIGLENQIKKMEPYDDHSNMEEKIQKVRSLWASVNETLMFLEKEREVVSSVLSLVNQYALDGTNVAINIPRLLLDKIEKQMFQLHIGNVYEAGKLNLLTVIQLLNEVLKVMKYERCQADQARLTVDLHYLEKETKFQKERLSDLKHMRYRIKDDLTTIRHSVVEKQGEWHKKWKEFLGLSPFSLIKGWTPSVDLLPPMSPLSFDPASEEVYAKSILCQYPASLPD

Target: T1, HAUS2 (human) (UniProt Q9NVX0)
T1 sequence: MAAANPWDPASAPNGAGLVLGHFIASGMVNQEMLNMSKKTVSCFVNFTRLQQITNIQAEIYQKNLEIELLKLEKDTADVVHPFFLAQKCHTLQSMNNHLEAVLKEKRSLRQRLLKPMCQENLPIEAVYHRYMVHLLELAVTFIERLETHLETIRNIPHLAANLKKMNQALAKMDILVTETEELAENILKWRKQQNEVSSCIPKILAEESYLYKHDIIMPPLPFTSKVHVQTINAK
Assay: co-purification; holo-complex, eight subunits co-expressed in High5 cells; cleared lysate on StrepII-Trap (tag on H2), eluted with D-desthiobiotin, then Superose 6; SDS-PAGE

Binder | binding
B1 | binds
B2 | binds
B3 | binds
B4 | binds
B5 | binds

Target: T1, HAUS2 (human)
Assay: cryo-EM structure; augmin^ΔH6C octamer on thin amorphous carbon film, Volta Phase Plate; head, neck and legs refined separately to 5–7 Å; subunits placed by fitting AlphaFold2/ColabFold models into the maps; both purified

Binder | binding
B6 | binds
B3 | binds

Target: T1, HAUS2 (human)
Assay: cross-linking; purified augmin^ΔH6C with DSSO at 250:1, 500:1, 750:1 and 1000:1 molar ratio, 1 h on ice; trypsin in gel or in solution, LC-MS/MS, MetaMorpheus, 1% FDR; both purified

Binder | binding
B2 | binds
B6 | binds
